Assay: Stilbenoid levels in batch culture of PALCPR-evolved-III with nonyl-acetate vs control (HPLC)
Design: species or system S. cerevisiae
Protocol: A Phenomenex (Torrance, Calif., USA) Luna 3 micrometer C18 (100×2.00 mm) column was used at 60° C. As mobile phase a gradient of acetonitrile and milliq water (both containing 50 ppm trifluoroacetic acid) was used at a flow of 0.4 ml/min. The gradient profile was linear from 15% acetonitrile to 100% acetonitrile over 20 min.
The stirrer speed was instantly set at 800 rpm. […] The cultivation will be referred to as PALCPR-solvent. […] The cultivation will be referred to as PALCPR-control.
For the determination of stilbenoids, an aliquot of 25 ml of cell broth was collected, and phase separation was initiated by centrifugation at 3500 g for 5 minutes. Both the upper nonylacetate phase and the lower aqueous medium phase were collected separately with a pipette and directly analyzed for their content of stilbenoids and intermediates by HPLC.

Question: What does the source list for `O=C(O)C=Cc1ccccc1` [Cinnamic acid, cinnamic acid]?
Answer: Supernatant (PALCPR-control (PALCPR-evolved-III), no solvent): 76.36 mg/L; Upper phase (0.1 L) concentration (PALCPR-solvent (PALCPR-evolved-III), 100 ml nonyl-acetate from start): 252.82 mg/L; Lower phase (1 L) concentration (PALCPR-solvent, aqueous phase, nonyl-acetate): 60.05 mg/L; Total produced in 1 L, % total (PALCPR-solvent, nonyl-acetate): 100 % total; Total produced in 1 L (PALCPR-solvent, nonyl-acetate, upper/10 + lower): 85.33 mg/L

Reference: patent publication US8518677B2, “Microbial bioreaction process” (Evolva Sa, priority 2007, dated 2013)
